In patent publication US9127015B2, “Tricyclopyrazole derivatives” (NERVIANO MEDICAL SCIENCES S.R.L., priority 2009, dated 2015):
Not every entry of the source has a single result; some have several. The other results are left out here. There may be further records. The records of an entry appear to be repeats (runs, samples, wells or individuals).

The chains behind the UniProt entries cited, without tags or fusion partners.
UniProt P00519, whole entry: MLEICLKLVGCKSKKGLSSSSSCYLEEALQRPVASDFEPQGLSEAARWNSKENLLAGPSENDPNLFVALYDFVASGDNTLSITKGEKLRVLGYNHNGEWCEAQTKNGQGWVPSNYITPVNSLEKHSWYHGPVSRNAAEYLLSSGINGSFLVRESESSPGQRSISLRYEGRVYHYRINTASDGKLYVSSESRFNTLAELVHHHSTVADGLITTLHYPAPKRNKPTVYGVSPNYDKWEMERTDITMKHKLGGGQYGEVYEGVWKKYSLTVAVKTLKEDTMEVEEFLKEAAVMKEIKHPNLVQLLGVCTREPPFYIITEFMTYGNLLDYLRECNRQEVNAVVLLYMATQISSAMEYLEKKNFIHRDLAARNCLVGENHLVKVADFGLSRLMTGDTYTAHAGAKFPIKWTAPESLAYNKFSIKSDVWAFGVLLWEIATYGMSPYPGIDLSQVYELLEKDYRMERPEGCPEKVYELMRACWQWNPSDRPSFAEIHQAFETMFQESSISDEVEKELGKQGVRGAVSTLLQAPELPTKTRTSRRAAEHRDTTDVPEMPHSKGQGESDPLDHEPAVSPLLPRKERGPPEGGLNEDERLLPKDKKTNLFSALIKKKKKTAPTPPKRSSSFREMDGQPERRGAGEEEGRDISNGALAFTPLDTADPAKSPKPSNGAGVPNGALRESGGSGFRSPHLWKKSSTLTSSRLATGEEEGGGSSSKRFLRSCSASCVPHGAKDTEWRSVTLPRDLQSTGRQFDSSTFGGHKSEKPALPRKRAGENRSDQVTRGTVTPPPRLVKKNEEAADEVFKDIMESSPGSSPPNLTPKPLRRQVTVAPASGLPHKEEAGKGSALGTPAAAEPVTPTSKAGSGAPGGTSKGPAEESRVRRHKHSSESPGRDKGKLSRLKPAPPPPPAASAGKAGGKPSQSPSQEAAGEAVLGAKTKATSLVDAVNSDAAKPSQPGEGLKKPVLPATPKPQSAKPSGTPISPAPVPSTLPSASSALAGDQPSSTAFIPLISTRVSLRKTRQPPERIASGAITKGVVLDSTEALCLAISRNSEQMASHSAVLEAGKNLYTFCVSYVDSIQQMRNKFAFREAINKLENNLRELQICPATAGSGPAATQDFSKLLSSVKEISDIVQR
UniProt Q07912, whole entry: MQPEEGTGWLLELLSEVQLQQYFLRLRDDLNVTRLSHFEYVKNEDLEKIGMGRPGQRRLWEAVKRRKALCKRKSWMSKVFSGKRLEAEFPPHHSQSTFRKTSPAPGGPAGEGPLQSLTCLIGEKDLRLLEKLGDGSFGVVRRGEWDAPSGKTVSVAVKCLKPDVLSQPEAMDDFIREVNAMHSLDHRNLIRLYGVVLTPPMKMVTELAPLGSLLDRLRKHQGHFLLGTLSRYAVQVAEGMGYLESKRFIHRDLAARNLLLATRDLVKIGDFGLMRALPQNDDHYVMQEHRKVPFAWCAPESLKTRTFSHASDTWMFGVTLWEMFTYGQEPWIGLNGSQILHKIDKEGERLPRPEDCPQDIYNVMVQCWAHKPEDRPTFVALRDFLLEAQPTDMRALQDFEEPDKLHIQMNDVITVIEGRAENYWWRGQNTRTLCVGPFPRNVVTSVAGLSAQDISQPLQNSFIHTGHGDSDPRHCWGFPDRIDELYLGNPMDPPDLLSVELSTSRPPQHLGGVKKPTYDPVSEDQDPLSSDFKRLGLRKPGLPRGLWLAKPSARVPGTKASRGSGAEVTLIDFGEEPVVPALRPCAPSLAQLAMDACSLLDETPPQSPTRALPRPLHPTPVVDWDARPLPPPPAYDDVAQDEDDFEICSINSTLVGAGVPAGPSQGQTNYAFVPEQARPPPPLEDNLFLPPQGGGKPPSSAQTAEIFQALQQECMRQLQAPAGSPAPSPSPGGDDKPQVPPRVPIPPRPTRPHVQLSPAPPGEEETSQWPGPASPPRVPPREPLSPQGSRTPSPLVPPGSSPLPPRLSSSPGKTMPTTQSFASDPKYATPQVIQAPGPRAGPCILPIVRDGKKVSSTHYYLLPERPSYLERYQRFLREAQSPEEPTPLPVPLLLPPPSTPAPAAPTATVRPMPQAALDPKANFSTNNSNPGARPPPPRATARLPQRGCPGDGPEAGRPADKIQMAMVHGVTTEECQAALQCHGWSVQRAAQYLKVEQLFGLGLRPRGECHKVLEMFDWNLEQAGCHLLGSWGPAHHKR

Key:
ABL = ABL (Homo sapiens, UniProt P00519); assay: Kinase inhibition assay, IC50 (Table A); conditions: Enzyme ABL
Experimental: (§1) The inhibiting activity of putative kinase inhibitors and the potency of selected compounds is determined through a method of assay based on the use of the Kinase-Glo® Luminescent Kinase Assay (commercially available from Promega corporation and described in Koresawa, M. and Okabe, T. (2004) High-throughput screening with quantitation of ATP consumption: A universal non-radioisotope, homogeneous assay for protein kinase. Assay Drug Dev. Technol. 2, 153-60).
(§2) The inhibitory activity of putative kinase inhibitors and the potency of selected compounds were also determined using a trans-phosphorylation assay.
(§3) Specific peptide or protein substrates are trans-phosphorylated by their specific ser-thr or tyr kinase in the presence of ATP traced with ^33P-γ-ATP, and in the presence of their own optimal buffer and cofactors. At the end of the phosphorylation reaction, more than 98% unlabeled ATP and radioactive ATP is captured by an excess of the ion exchange dowex resin; the resin then settles down to the bottom of the reaction plate by gravity. Supernatant is subsequently withdrawn and transferred into a counting plate, then evaluated by β-counting.
(§4) Reaction conditions are target (enzyme) dependent and thus undergo individual adaptations. Also the buffer conditions may vary depending on the kinase of interest. […]

ACK1 = ACK1 (Homo sapiens, UniProt Q07912); assay: Kinase inhibition assay, IC50 (Table A); conditions: Enzyme ACK1
Experimental: as §1, §2, §3, §4

IC50 (ABL): 2.29 µM and 920 nM
IC50 (ACK1): 2.48 µM and 1 µM
Compound: O=C(NCC1CC1)c1cc2n(c1)CCc1c(NC(=O)c3c(Cl)cccc3Cl)n[nH]c1-2 [Example A38-M1-B41]
